Reference: patent US8685936B2, “Sphingosine kinase inhibitor prodrugs” (Apogee Biotechnology Corporation, priority 2009, dated 2014)
At least one compound was matched to its structure with a doubt left.

Test system: DSS-colitis model
Test: Acute DSS-colitis model of inflammatory bowel disease
Format: in vivo
Details: 2% DSS, 50 mg/kg oral, 6 days, C57BL/6 mice, 4-5 per group (Example 17, FIG. 10)
Protocol: FIG. 7. Effects of Compound 1 and Compound 2 on the Disease Activity Index (DAI) in the acute DSS-colitis model. […] After 6 days, the DAI was calculated for each group. Values represent the mean±std. dev. for 5-6 mice per group. […] FIG. 8. Effects of Compound 1 and Compound 2 on colon length in the acute DSS-colitis model. […] After 6 days, the animals were sacrificed and the length of the colon was measured. Values represent the mean±std. dev. for 6-7 mice per group. In this model, colon length decreases as the disease progresses. […] FIG. 9. Effects of Compound 1 and Compound 2 on neutrophil infiltration into the colon in the acute DSS-colitis model. […] After 6 days, the animals were sacrificed and the colons were harvested. Myeloperoxidase activity (MPO) was measured and normalized by the protein concentration of the samples. Values represent the mean±std. dev. for 6-7 mice per group. […] After 6 days, the animals were sacrificed and the length of the colon was measured. […] After 6 days, the animals were sacrificed and the length of the colon was measured. […] The body weight of each animal was measured each day, and the Disease Activity Index (DAI) was scored for each animal on Day 6. On Day 6, the animals were sacrificed by cervical dislocation and the entire colon was removed and measured to the nearest 0.1 cm. […]

CC(C)C(=O)Oc1cc(CCNC(=O)C23CC4CC(C2)CC(c2ccc(Cl)cc2)(C4)C3)ccc1O [Compound 5, Isobutyric acid 5-(2-{[3-(4-chlorophenyl)adamantane-1-carbonyl]amino}ethyl)-2-hydroxyphenyl ester]
colon length (contraction of the colon), ester prodrugs: effective in preventing the contraction of the colons
